# Test results as given in PubChem BioAssay AID493014 (National Center for Advancing Translational Sciences (NCATS), 2011).
# The whole screen tested about 340,000 compounds, of which about 170 (0.05%) were called active. Inconclusive means that the source gave no clear call. Such entries were picked first, then a sample of the others. Calls come from the whole dose curve; as a rule, active = well fitted inhibition curve with a large enough effect in the signal ratio, with a control signal flat (not every such curve was filed as active); inconclusive = small, poorly fitted or top-dose-only effect, or effect the other way, or a change in a side signal; inactive = flat fitted curve, though single readings scatter; the % refers to the signal ratio. A potency beside an inconclusive call is a rough fit, not a confirmed value.
# Experiment: qHTS Assay to Find Inhibitors of Chronic Active B-Cell Receptor Signaling;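 for activity change, negative = inhibition: plate controls were basal doxycycline-induced cells for no effect and cells given 10 µM MG132 for full effect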
# Conditions: ABC-DLBCL IkBa-CBG/CBR reporter, luminescence ratio (green luciferase fused to IkBa over red control in TMD8 lymphoma cells), 4 h; activity change, negative = inhibition: at 46.1 µM (top of the series) unless noted
# Outline: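 Doxycycline induced both beetle luciferases in TMD8 lymphoma cells; IKK-driven degradation limits the IkappaBalpha-fused green signal, while red luminescence normalises for cell number and nonspecific effects. Compounds tested up to 46 uM, 4 hrs.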
# Potency is the fitted concentration of half-maximal effect.
Compound,"activity change, negative = inhibition",Potency
CN(C(=O)c1ccc(-c2nn(C)c(=O)c3ccccc23)cc1)C1CCCCC1,inconclusive: -24.4%,–
O=C(Nc1ccc(Br)c2ccccc12)c1ccc2ccccc2c1O,–,"inconclusive: 35.5 µM [falling, single point]"
O=C(COc1ccc(F)cc1)N1CCC(c2ccccc2)C1 (configuration not stated),–,"inconclusive: 29.1 µM [falling, single point]"
CC(C)OC(=O)c1ccc(NC(=O)c2cccc(-n3cnnn3)c2)cc1,inconclusive: -0.248%,–
O=[N+]([O-])c1cc2oc3c(c2c(C=NCc2ccncc2)c1O)CCCC3,inconclusive: 25.5%,–
CC1=NN(c2ccccc2)C(=O)/C1=C/c1c(O)n(-c2ccc(F)cc2)[nH]c1=O,–,"inconclusive: 20.6 µM [falling, partial curve, poor fit]"
COc1ccccc1NS(=O)(=O)c1ccc(O)c(C(=O)OCC(=O)Nc2ccccc2F)c1,inconclusive: -6.15%,–
COC(=O)c1ccc(/C=C/C(=O)c2cccc(OC)c2)cc1,inconclusive: -26%,–
CC1CCN(c2ccc(C(=O)Nc3ccc4c(c3)OCO4)cc2[N+](=O)[O-])CC1,inconclusive: 8.58%,–
COc1cc(/C=C(\C#N)c2nc(-c3cc4ccccc4oc3=O)cs2)ccc1O,inactive,–
COc1cccc(NC(=O)c2ccccc2Oc2ccccc2)c1,inactive,–
COC(=O)Cc1c(C)c2ccc(OCC(=O)c3ccc(OC)c(OC)c3)cc2oc1=O,inconclusive: 2.24%,–
NC(=O)c1ccc(N2CCCCC2)c(N2C(=O)C3C4C=CC(C4)C3C2=O)c1 (configuration not stated),inconclusive: -0.742%,–
COC(=O)c1ccc(NC(=O)CNc2ccccc2)cc1,–,"inconclusive: 7.08 µM [falling, partial curve]"
Cc1ccc(N=Cc2nc(-c3ccco3)oc2O)cc1,inconclusive: 3.22%,–
O=C(NCc1ccc2c(c1)OCO2)C1COc2ccccc2O1 (configuration not stated),inconclusive: 15%,–
O=C(Nc1nc(-c2ccc3c(c2)OCO3)cs1)C1COc2ccccc2O1 (configuration not stated),inconclusive: 10.1%,–
CN(C)CCCn1c2c(c(SCC(=O)Nc3cccc4ccccc34)nc1=O)CCC2,–,"inconclusive: 23.1 µM [falling, partial curve, poor fit]"
Cc1sc2ncnc(SCC(=O)N3CCCC(C(N)=O)C3)c2c1C (configuration not stated),–,"inconclusive: 32.6 µM [falling, single point]"
Nn1c(SCC(=O)Nc2ccc3c(c2)OCCO3)nnc1-c1cccnc1,inactive,–
COC(=O)c1sc(NC(=O)/C=C/c2ccc(C)cc2)nc1C,–,"inconclusive: 16.4 µM [falling, partial curve]"
C=C(C)CSC1=C(C#N)C(c2ccsc2)CC(=O)N1 (configuration not stated),inactive,–
O=C1CCCN1S(=O)(=O)c1ccccc1,inconclusive: 0.607%,–
Cc1ccc(NC(=O)Nc2ccc3c(c2)N(C)C(=O)CS3)nc1,inconclusive: 27.4%,–
Cc1ccccc1NC(=O)NCCCN1CCCC1,–,"inconclusive: 29.1 µM [falling, single point]"
CCN(c1ccccc1)S(=O)(=O)c1ccc(Cl)c(NC(=O)CN(C)C2CCN(C)CC2)c1,inconclusive: 0.728%,–

# Structural class: the entries above with a nitro group on carbon.
Compound,"activity change, negative = inhibition",Potency
O=[N+]([O-])c1cc2oc3c(c2c(C=NCc2ccncc2)c1O)CCCC3,inconclusive: 25.5%,–
CC1CCN(c2ccc(C(=O)Nc3ccc4c(c3)OCO4)cc2[N+](=O)[O-])CC1,inconclusive: 8.58%,–

# Remaining list, next part:

Compound,"activity change, negative = inhibition",Potency
NS(=O)(=O)c1ccc(N=Nc2ccc(=O)[nH]c2O)cc1,inconclusive: 15.8%,–
COC(=O)c1ccc(NC(=S)NC(=O)c2c(-c3ccccc3)noc2C)cc1,inconclusive: 13.2%,–
O=C(CSc1ccc(-c2ccccn2)nn1)Nc1nccs1,inconclusive: 12.9%,–
c1ccc(COc2ccc(OCCCN3CCCC3)cc2)cc1,inactive,–
O=C(CSc1nc2ccccc2o1)Nc1nc(-c2ccccc2)c(-c2ccccc2)s1,–,"inconclusive: 1.3 µM [rising, full curve, poor fit]"
CCCn1nc(C(=O)Nc2nnc(C3CC3)s2)c2ccccc2c1=O,inconclusive: -11.3%,–
COc1ccc(C(=O)O/N=C(\C)c2ccccc2)cc1,inactive,–
O=C1CCCC2=C1C1(O)C(=O)c3ccccc3C1(O)O2 (configuration not stated),inconclusive: -2.03%,–
CCN(CC)CCNCC1C(=O)O[C@@H]2C[C@@]3(C)CCC[C@H](C)C3=C[C@H]12 (some centres not stated),–,"inconclusive: 25.1 µM [falling, single point]"
Cc1nc(NCCCN2CCOCC2)c2oc3ccccc3c2n1,inconclusive: 8.88%,–
Cc1ccc(-c2nnc(Nc3ccc4c(c3)OCO4)c3ccccc23)cc1S(=O)(=O)NC(C)C,–,"inconclusive: 20.6 µM [falling, partial curve]"
Cc1nnc(SCC(=O)N2c3ccccc3Sc3ccccc32)n1N,inactive,–
CCS(=O)(=O)NCC(c1ccco1)N1CCN(c2ccccc2)CC1 (configuration not stated),inconclusive: -3.79%,–
COc1ccc(CC(=O)Nc2ccc3c(C)cc(=O)oc3c2)cc1OC,inactive,–
COc1cc(/C=N/NC(=O)c2ccc3c(c2)OCCO3)c(Br)c(Br)c1O,–,"inconclusive: 22.4 µM [falling, single point]"
CCc1cccc(NC(=O)Cn2cc(C=O)c3ccccc32)c1,inconclusive: -16.8%,–
Cc1ccccc1NS(=O)(=O)c1cc(C(=O)Nc2ccccc2-c2ccccc2)ccc1Cl,–,"inconclusive: 32.6 µM [rising, partial curve, poor fit]"
CCOC(=O)C1=C(C)N(C)C(=S)NC1c1c(OCC)ccc2ccccc12 (configuration not stated),inactive,–
C/C(CC(=O)Nc1ccccc1F)=N\NC(=O)Cc1ccc(Cl)cc1,–,"inconclusive: 35.5 µM [falling, single point]"
O=C(/C=C\c1ccc(-c2ccccc2)o1)c1ccccc1,–,"inconclusive: 4.11 µM [falling, single point]"
O=C(CCSc1nc(-c2ccco2)cc(C(F)(F)F)n1)N1CCCc2ccccc21,inconclusive: 6.17%,–
Cc1ccc(OCC(=O)Nc2ccncc2)cc1,inactive,–
Cc1ccc(OC(=O)c2cc(C)nn2C(C)(C)C)cc1,inactive,–
Cc1cccc(NC(=O)C2C3C=CC(O3)C2C(=O)O)c1C (configuration not stated),inconclusive: 6.93%,–
CCOC(=O)C1CCCN(C(=O)c2cc(COc3ccc(C)nc3)on2)C1 (configuration not stated),inactive,–
C=C(C)CSc1nc2sc3c(c2c(=O)n1C1CCCCC1)CCN(C)C3,–,"inconclusive: 17.8 µM [falling, single point]"
